As a reminder, the IC50 is the concentration needed to halve the response being measured.

A short description of experiment [1]: NFkB reporter suppression in cystic fibrosis bronchial cells – cell-based, uHTS hits, panel, cytotoxicity readout, dose response (AID 624344). Particulars: CF bronchial epithelial cells, PAF-induced NFkB reporter inhibition; with PAF, mean of runs.
The subject of experiment [2] is Cytotoxicity. Described as above. Particulars: CF bronchial epithelial cells, mean of runs.

The source made the active and inactive calls. No rule for the calls is given here.

With `COc1c(O)cc2c(c1OC)-c1ccc(OC)c(=O)cc1C(NC(C)=O)CC2` (configuration not stated), the IC50 in experiment [1] and in experiment [2] was inactive: > 79 µM in each case.

The values above are taken from PubChem BioAssay AID624344 (Sanford-Burnham Center for Chemical Genomics, 2012).
